From patent US20040265961A1
Results are given in words; binding and its absence hold for the method and conditions named. In cells and extracts the contact can be indirect. Some results given as binding are weak or reduced against the parent protein; the word gives no strength. Sequences can lack the tags named with a protein.

Protein sequences, listed by entry. Tags and fused reporters are not part of them. Lines headed by an entry give the natural chain unless they say otherwise; changes in a name come on top. Residues count along the entry.
UniProt P41279: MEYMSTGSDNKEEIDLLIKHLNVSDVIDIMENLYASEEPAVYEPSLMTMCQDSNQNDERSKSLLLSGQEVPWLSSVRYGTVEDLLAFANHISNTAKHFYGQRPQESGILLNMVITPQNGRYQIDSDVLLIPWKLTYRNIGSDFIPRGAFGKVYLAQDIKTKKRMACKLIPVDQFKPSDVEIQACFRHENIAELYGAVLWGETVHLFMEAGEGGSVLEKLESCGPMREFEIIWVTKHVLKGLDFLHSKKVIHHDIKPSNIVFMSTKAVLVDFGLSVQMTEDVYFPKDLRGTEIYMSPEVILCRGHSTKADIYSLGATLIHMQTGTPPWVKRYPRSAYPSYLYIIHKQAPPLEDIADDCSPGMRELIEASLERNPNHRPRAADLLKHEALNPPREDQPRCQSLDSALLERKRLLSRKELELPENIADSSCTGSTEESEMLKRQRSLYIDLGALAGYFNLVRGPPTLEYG
Cot/Tp12 with truncation of the C-terminal 71 amino acids: residues 1-396 of P41279
UniProt P51617: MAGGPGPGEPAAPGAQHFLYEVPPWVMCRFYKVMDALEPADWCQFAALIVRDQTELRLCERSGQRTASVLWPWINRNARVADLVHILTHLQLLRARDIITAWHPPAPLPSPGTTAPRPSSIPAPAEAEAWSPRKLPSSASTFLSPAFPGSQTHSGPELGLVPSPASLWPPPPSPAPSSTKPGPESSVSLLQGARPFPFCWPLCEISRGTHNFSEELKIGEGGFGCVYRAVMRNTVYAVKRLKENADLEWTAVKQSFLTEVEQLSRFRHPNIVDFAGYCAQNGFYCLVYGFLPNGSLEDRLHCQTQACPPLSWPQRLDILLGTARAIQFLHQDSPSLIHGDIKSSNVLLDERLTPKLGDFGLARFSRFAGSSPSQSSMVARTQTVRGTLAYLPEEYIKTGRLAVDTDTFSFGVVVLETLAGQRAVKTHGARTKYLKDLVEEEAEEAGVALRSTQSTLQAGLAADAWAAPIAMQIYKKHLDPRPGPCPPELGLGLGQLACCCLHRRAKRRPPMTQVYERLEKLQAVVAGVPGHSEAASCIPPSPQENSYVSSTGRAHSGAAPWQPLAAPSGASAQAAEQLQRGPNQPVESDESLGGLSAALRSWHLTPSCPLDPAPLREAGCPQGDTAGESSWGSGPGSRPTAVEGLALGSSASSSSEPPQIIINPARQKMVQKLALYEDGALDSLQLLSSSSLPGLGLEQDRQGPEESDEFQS

Legend:
[1] = target: Cot/Tp12 with truncation of the C-terminal 71 amino acids (human) (UniProt P41279); experiment: co-immunoprecipitation from cotransfected 293T cells
[2] = target: Cot/Tp12 (full-length) (human) (UniProt P41279); experiment: reciprocal co-immunoprecipitation (anti-Cot IP with anti-FLAG blot, and anti-FLAG IP with anti-Cot blot) from cotransfected 293T cells
[3] = target: IRAK1 (UniProt P51617); experiment: anti-FLAG co-immunoprecipitation from KSR-2-FLAG-transfected 293T lysate, Western blot
[4] = target: Cot/Tp12 (full-length) (human) (UniProt P41279); experiment: as above
[5] = target: P.MEK1 (UniProt Q02750); experiment: as above

Measured: binding

B1: hKSR-2-FLAG (full-length human KSR-2 with the FLAG epitope at its carboxyl terminus) (protein)
chain: MTDEQVCETVEKYGANREECARLNASLSCLRNVHMSGGNLSKQDWTIQWPTTETGKENNPVCPPEPTPWIRTHLSQSPRVPSKCVQHYCHTSPTPGAPVYTHVDRLTVDAYPGLCPPPPLESGHRSLPPSPRQRHAVRTPPRTPNIVTTVTPPGTPPMRKKNKLKPPGTPPPSSRKLIHLIPGFTALHRSKSHEFQLGHRVDEAHTPKAKKKSKPLNLKIHSSVGSCENIPSQQRSPLLSERSLRSFFVGHAPFLPSTPPVHTEANFSANTLSVPRWSPQIPRRDLGNSIKHRFSTKYWMSQTCTVCGKGMLFGLKCKNCKLKCHNKCTKEAPPCHLLIIHRGDPARLVRTESVPCDINNPLRKPPRYSDLHISQTLPKTNKINKDHIPVPYQPDSSSNPSSTTSSTPSSPAPPLPPSATPPSPLHPSPQCTRQQKNFNLPASHYYKYKQQFIFPDVVPVPETPTRAPQVILHPVTSNPILEGNPLLQIEVEPTSENEEVHDEAEESEDDFEEMNLSLLSARSFPRKASQTSIFLQEWDIPFEQLEIGELIGKGRFGQVYHGRWHGEVAIRLIDIERDNEDQLKAFKREVMAYRQTRHENVVLFMGACMSPPHLAIITSLCKGRTLYSVVRDAKIVLDVNKTRQIAQEIVKGMGYLHAKGILHKDLKSKNVFYDNGKVVITDFGLFSISGVLQAGRREDKLRIQNGWLCHLAPEIIRQLSPDTEEDKLPFSKHSDVFALGTIWYELHAREWPFKTQPAEAIIWQMGTGMKPNLSQIGMGKEISDILLFCWAFEQEERPTFTKLMDMLEKLPKRNRRLSHPGHFWKSAELDYKDDDDK
binds: all assays above

B2: KSR-2-CD-FLAG (catalytic domain of human KSR-2 with the FLAG epitope at its carboxyl terminus) (protein)
chain: EQLEIGELIGKGRFGQVYHGRWHGEVAIRLIDIERDNEDQLKAFKREVMAYRQTRHENVVLFMGACMSPPHLAIITSLCKGRTLYSVVRDAKIVLDVNKTRQIAQEIVKGMGYLHAKGILHKDLKSKNVFYDNGKVVITDFGLFSISGVLQAGRREDKLRIQNGWLCHLAPEIIRQLSPDTEEDKLPFSKHSDVFALGTIWYELHAREWPFKTQPAEAIIWQMGTGMKPNLSQIGMGKEISDILLFCWAFEQEERPTFTKLMDMLEKLPKRNRRLSHPGHFWKSAELDYKDDDDK
binds: [2]
